Protein sequences can lack the tags named with them.
Test system: T1, SB transposase N123 (N-terminal DNA-binding domain, residues 1-123) (synthetic (salmonid consensus))
T1 sequence: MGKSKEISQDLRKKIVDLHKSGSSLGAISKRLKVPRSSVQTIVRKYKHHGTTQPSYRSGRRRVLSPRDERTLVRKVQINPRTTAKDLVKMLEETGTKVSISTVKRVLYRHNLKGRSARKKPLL
Experiment: EMSA
Conditions: two complexes, two N123 per IR; 20 mM HEPES pH 7.5, 150 mM NaCl, poly(dI)(dC), on ice; competed by unlabelled IR; purified recombinant protein; protein details: C-terminal His tag (pET21a); label: 32P

Sequence: AGTTGAAGTCGGAAGTTTACATACACTTAAGTTGGAGTCATTAAAACTCGTTTTTCAACTACACCACAAATTTCTTGTTAACAAACAATAGTTTTGGCAAGTCAGTTAGGACATCTACTTTGTGCATGACACAAGTCATTTTTCCAACAATTGTTTACAGACAGATTATTTCACTTATAATTCACTGTATCACAATTCCAGTGGGTCAGAAGTTTACATACACTAA (double strand)
- binding result: binds
